# Source: patent US8415369B2, “Spiroheterocyclic pyrrolidine dione derivatives useful as pesticides” (Syngenta Crop Protection LLC, priority 2007, dated 2013)
# Like-named read-outs stand apart in the source and are kept apart here. Some entries share one result that the patent states for a list of compounds.
# How the values were obtained:
# [1] = test system: Thrips tabaci (onion thrips); assay type: in vivo; conditions: concentration of 400 ppm; mortality checked after 6 days
# [2] = test system: Myzus persicae (green peach aphid); conditions: concentration of 400 ppm; mortality checked after 6 days
# [3] = test system: Myzus persicae (green peach aphid); assay: Example B2: Myzus persicae, mixed population, systemic/feeding activity, curative (pea seedling roots in test solution); conditions: concentration of 400 ppm; mortality checked 6 days after introduction
# [4] = test system: Nilaparvata Lugens (brown rice planthopper); assay: Example B9: Nilaparvata lugens, larvicide, feeding/contact (rice seedlings); assay type: in vivo; conditions: concentration of 400 ppm; mortality, growth regulation, effects on F1 generation 6-12 days after treatment
# [5] = test system: Aphis craccivora (pea aphid); assay: Example B11: Aphis craccivora, mixed population, systemic/feeding (pea seedling roots in test solution); assay type: in vivo; conditions: concentration of 400 ppm; mortality 6 days later
# [6] = test system: Aphis gossypii (cotton aphid); assay: Example B13: Aphis gossypii, mixed population, systemic/feeding (pea seedling roots in test solution); assay type: in vivo; conditions: concentration of 400 ppm; mortality 6 days later
# [7] = test system: Tetranychus urticae (two-spotted spider mite); assay: Example B3: Tetranychus urticae, mixed population, feeding/residual contact activity, preventive (bean leaf discs); assay type: in vivo; conditions: concentration of 400 ppm; egg, larval and adult mortality checked 8 days later
# [8] = test system: Bemisia tabaci (tobacco white fly); assay: Example B8: Bemisia tabaci, larvicide, contact/feeding (bean plants); assay type: in vivo; conditions: concentration of 400 ppm; number of emerged adults three weeks later vs non treated
# [9] = test system: Frankliniella occidentalis (western flower thrips); assay: Example B7: Frankliniella occidentalis on bean leaf discs or bean plants; assay type: in vivo; conditions: concentration of 400 ppm; reduction of treated population, 6 days (leaf discs) or 14 days (plants)
# [10] = test system: Plutella xylostella (diamond back moth); assay: Example B5: Plutella xylostella, larvicide, feeding/residual contact activity, preventive (artificial diet MTP); assay type: in vivo; conditions: concentration of 400 ppm; larval mortality, antifeedant and growth regulation after 5 days
SMILES,activity [1],activity [2],activity [3],activity [7],also measured
CCOC(=O)OC1=C(c2c(Cl)cccc2Cl)C(=O)NC12CCN(OC)CC2 [Compound A26],over 80%,,,,
C=CCOC(=O)OC1=C(c2c(C)cc(Br)cc2C)C(=O)NC12CCN(OC)CC2 [Compound A68],,over 80%,over 80%,,
CCOC(=O)OC1=C(c2ccc(Cl)cc2Cl)C(=O)NC12CCN(OC)CC2 [Compound A22],over 80%,over 80%,over 80%,,activity [4]: over 80%; activity [5]: over 80%; activity [6]: over 80%
COc1ccc(COC2=C(c3cc(C)ccc3C)C(=O)NC23CCN(OC)CC3)cc1 [Compound A16],over 80%,,,,
CON1CCC2(CC1)NC(=O)C(c1ccc(Br)cc1C)=C2O [Compound C22],over 80%,over 80%,,,
CON1CCC2(CC1)NC(=O)C(c1c(C)cc(C)cc1C)=C2OC(=O)N(C)CCC#N [Compound A20],,,over 80%,,
CCON1CCC2(CC1)NC(=O)C(c1ccc(Cl)cc1Cl)=C2O [Compound C9],over 80%,over 80%,over 80%,,
CON1CCC2(CC1)NC(=O)C(c1cc(C3CC3)cc(F)c1C)=C2OC(=O)C(C)(C)C [Compound E2],,,,over 80%,
CCOC(=O)OC1=C(c2ccc(Br)cc2C)C(=O)NC12CCN(OC)CC2 [Compound A86],,over 80%,over 80%,over 80%,
CCON1CCC2(CC1)NC(=O)C(c1ccc(Cl)cc1Cl)=C2OC(=O)C(C)(C)C [Compound A55],,over 80%,over 80%,,
CON1CCC2(CC1)NC(=O)C(c1ccc(Br)cc1C)=C2OC(=O)C(C)(C)C [Compound A87],,,,over 80%,
CON1CCC2(CC1)NC(=O)C(c1ccc(C3CC3)cc1C)=C2OC(=O)C(C)(C)C [Compound A81],,,,,activity [8]: over 80%; activity [4]: over 80%
"CON1CCC2(CC1)NC(=O)C(c1cc(-c3ccc(Cl)cc3)c(F)cc1C)=C2OC(=O)C(C)(C)C [Compound A82, 2,2-Dimethyl-propionic acid 3-(4′-chloro-6-fluoro-4-methyl-biphenyl-3-yl)-8-methoxy-2-oxo-1,8-diaza-spiro[4.5]dec-3-en-4-yl ester]",,,,over 80%,
CON1CCC2(CC1)NC(=O)C(c1cc(-c3ccc(Cl)cc3)c(C)cc1C)=C2O [Compound C15],over 80%,over 80%,,over 80%,
CON1CCC2(CC1)NC(=O)C(c1cc(Br)ccc1C)=C2O [Compound C5],,over 80%,,,
CON1CCC2(CC1)NC(=O)C(c1cc(-c3ccc(F)cc3)c(F)cc1C)=C2OC(=O)C(C)(C)C [Compound A90],over 80%,,,over 80%,
CCOC(=O)OC1=C(c2c(C)cc(C3CC3)cc2C)C(=O)NC12CCN(OC)CC2 [Compound A70],,over 80%,over 80%,,activity [9]: over 80%; activity [4]: over 80%; activity [6]: over 80%
CON1CCC2(CC1)NC(=O)C(c1ccc(Cl)cc1Cl)=C2O [Compound C3],over 80%,over 80%,over 80%,,activity [4]: over 80%; activity [6]: over 80%
COc1ccc(COC2=C(c3ccc(Cl)cc3Cl)C(=O)NC23CCN(OC)CC3)cc1 [Compound A25],over 80%,,,,
CCN(CC)C(=O)OC1=C(c2cc(C)ccc2C)C(=O)NC12CCN(OC)CC2 [Compound A12],over 80%,,,,activity [4]: over 80%
CON1CCC2(CC1)NC(=O)C(c1cc(-c3ccc(Cl)cc3)cc(F)c1C)=C2O [Compound F1],over 80%,over 80%,over 80%,,
CON1CCC2(CC1)NC(=O)C(c1c(C)cc(C3CC3)cc1C)=C2OC(=O)C(C)(C)C [Compound A77],,,over 80%,,activity [4]: over 80%
COc1cc(COC2=C(c3cc(C)ccc3C)C(=O)NC23CCN(OC)CC3)cc(OC)c1OC [Compound A17],over 80%,,,,
CON1CCC2(CC1)NC(=O)C(c1ccc(C3CC3)cc1C)=C2O [Compound C18],,over 80%,,,
CON1CCC2(CC1)NC(=O)C(c1c(C)cc(C3CC3)cc1C)=C2O [Compound C13],,over 80%,over 80%,,

SMILES,activity [1],activity [2],activity [3],activity [7],also measured
CON1CCC2(CC1)NC(=O)C(c1ccc(Br)cc1Cl)=C2OC(=O)C(C)(C)C [Compound A85],,,,over 80%,
CON1CCC2(CC1)NC(=O)C(c1ccc(Br)cc1Cl)=C2O [Compound C21],over 80%,over 80%,over 80%,over 80%,
"CCON1CCC2(CC1)NC(=O)C(c1c(C)cc(C)cc1C)=C2OC(=O)C(C)(C)C [Compound A54, 2,2-Dimethyl-propionic acid 8-ethoxy-2-oxo-3-(2,4,6-trimethyl-phenyl)-1,8-diaza-spiro[4.5]dec-3-en-4-yl ester]",,,over 80%,,
CCOC(=O)OC1=C(c2cc(Br)ccc2C)C(=O)NC12CCN(OC)CC2 [Compound A30],,over 80%,,,
CON1CCC2(CC1)NC(=O)C(c1ccc(Cl)cc1Cl)=C2OC(=O)N(C)CCC#N [Compound A24],,,over 80%,,
CCOC(=O)OC1=C(c2ccc(C3CC3)cc2Cl)C(=O)NC12CCN(OC)CC2 [Compound A78],,over 80%,over 80%,,activity [8]: over 80%; activity [4]: over 80%
CON1CCC2(CC1)NC(=O)C(c1c(C)cc(C)c(Cl)c1C)=C2O [Compound C20],over 80%,over 80%,over 80%,over 80%,
CON1CCC2(CC1)NC(=O)C(c1c(C)cc(Br)cc1C)=C2O [Compound C12],,over 80%,over 80%,over 80%,
CCON1CCC2(CC1)NC(=O)C(c1cc(C)ccc1C)=C2OC(=O)C(C)(C)C [Compound A53],,,over 80%,,
CON1CCC2(CC1)NC(=O)C(c1cc(Br)c(C)cc1C)=C2O [Compound C14],over 80%,over 80%,,,
CON1CCC2(CC1)NC(=O)C(c1c(C)cc(-c3ccc(Cl)cc3)cc1C)=C2O [Compound C23],,over 80%,,over 80%,
CCOC(=O)OC1=C(c2ccc(Br)cc2Cl)C(=O)NC12CCN(OC)CC2 [Compound A84],over 80%,,over 80%,over 80%,
CON1CCC2(CC1)NC(=O)C(c1cc(-c3ccc(F)cc3)cc(F)c1C)=C2OC(=O)C(C)(C)C [Compound E3],over 80%,,,over 80%,
CON1CCC2(CC1)NC(=O)C(c1cc(C3CC3)cc(F)c1C)=C2O [Compound F2],,over 80%,,,
CCOC(=O)OC1=C(c2cc(-c3ccc(Cl)cc3)c(C)cc2C)C(=O)NC12CCN(OC)CC2 [Compound A73],over 80%,,,,
CON1CCC2(CC1)NC(=O)C(c1ccc(C3CC3)cc1Cl)=C2O [Compound C17],over 80%,over 80%,,,
CCOC(=O)OC1=C(c2cc(C3CC3)c(C)cc2C)C(=O)NC12CCN(OC)CC2 [Compound A75],over 80%,over 80%,,,
"CCOCOC1=C(c2cc(C)ccc2C)C(=O)NC12CCN(OC)CC2 [Compound A61, 3-(2,5-dimethyl-phenyl)-4-ethoxymethoxy-8-methoxy-1,8-diaza-spiro[4.5]dec-3-en-2-one]",over 80%,over 80%,over 80%,,
CCON1CCC2(CC1)NC(=O)C(c1cc(C)ccc1C)=C2O [Compound C7],,over 80%,over 80%,,
CCOC(=O)OC1=C(c2c(C)cc(Br)cc2C)C(=O)NC12CCN(OC)CC2 [Compound A69],,over 80%,over 80%,over 80%,
C=CCOC(=O)OC1=C(c2cc(Br)ccc2C)C(=O)NC12CCN(OC)CC2 [Compound A31],,over 80%,,,
CCOC(=O)OC1=C(c2cc(Br)c(C)cc2C)C(=O)NC12CCN(OC)CC2 [Compound A71],,over 80%,,,
CON1CCC2(CC1)NC(=O)C(c1cc(C)ccc1C)=C2OC(C)=O [Compound A51],over 80%,over 80%,over 80%,,
"CON1CCC2(CC1)NC(=O)C(c1cc(C3CC3)c(C)cc1C)=C2O [Compound C16, 3-(5-Cyclopropyl-2,4-dimethyl-phenyl)-4-hydroxy-8-methoxy-1,8-diaza-spiro[4.5]dec-3-en-2-one]",,over 80%,,over 80%,
C=CCOC(=O)OC1=C(c2c(C)cc(C)cc2C)C(=O)NC12CCN(OC)CC2 [Compound A19],over 80%,over 80%,,over 80%,activity [10]: over 80%
